Data as given in PubChem BioAssay AID720710 (VTT Finland, 2013).
This is a random part of about 1,380 deposited reagents. 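One array per condition without replicates; hydroxyurea arrays received 2 mM for 16 h plus 3 h recovery.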 Further read-outs or replicates are left out here.

Purpose: 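siRNAs sensitising CCNE1-overexpressing U-2 OS cells to replication stress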 (primary screen)
Cells: human U-2 OS bone cancer cells, parental and a cyclin E (CCNE1) overexpressing line
Reagent: single siRNA against human genes, 1 µM siRNA in the printed spot mix
Timing: 67 h
Treatment: half the arrays: hydroxyurea 2 mM for 16 h, then 3 h recovery; other arrays untreated
Measurement: 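DNA synthesis measured as imaged EdU uptake per nucleus (DAPI) at 67 h, normalised to subgrid median and given as z-score versus non-targeting controls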
Direction: EdU z-score, cyclin E line, hydroxyurea: higher = more DNA synthesis than non-targeting controls

EdU z-score, cyclin E line, hydroxyurea, by gene and reagent
CHD8: SID164221836 -0.737; SID164221837 0.342
RAD51: SID164222594 -1.07; SID164222595 1.56
GTF2H3: SID164222026 -0.311; SID164222027 3.3
MMS19: SID164222316 -1.89; SID164222317 -1.38
RAD54L: SID164222606 -1.89; SID164222607 -0.141
RRM2B: SID164222702 -0.346; SID164222703 -0.0149
TREX1: SID164222924 -1.36; SID164222925 0.595
SMC1B: SID164222792 -3.86; SID164222793 -1.74
NEMF: SID164222718 -0.996; SID164222719 -0.292
HUS1: SID164222166 0.333; SID164222167 0.811
SMARCA5: SID164222776 -2.26; SID164222777 -0.157
ATM: SID164221700 -0.957; SID164221701 -0.351

Taken from above:
For “EdU z-score, cyclin E line, hydroxyurea”, GTF2H3 [SID164222026] has -0.311
Under “EdU z-score, cyclin E line, hydroxyurea”, SMARCA5 [SID164222777] has -0.157
Result for CHD8 [SID164221837] in “EdU z-score, cyclin E line, hydroxyurea”: 0.342
Entry for NEMF [SID164222719] in “EdU z-score, cyclin E line, hydroxyurea”: -0.292
